The values that follow come from article doi:10.1101/2023.10.24.563848.

Sequences of proteins named here, by UniProt entry; tags and fusion partners are left off.
UniProt P49336: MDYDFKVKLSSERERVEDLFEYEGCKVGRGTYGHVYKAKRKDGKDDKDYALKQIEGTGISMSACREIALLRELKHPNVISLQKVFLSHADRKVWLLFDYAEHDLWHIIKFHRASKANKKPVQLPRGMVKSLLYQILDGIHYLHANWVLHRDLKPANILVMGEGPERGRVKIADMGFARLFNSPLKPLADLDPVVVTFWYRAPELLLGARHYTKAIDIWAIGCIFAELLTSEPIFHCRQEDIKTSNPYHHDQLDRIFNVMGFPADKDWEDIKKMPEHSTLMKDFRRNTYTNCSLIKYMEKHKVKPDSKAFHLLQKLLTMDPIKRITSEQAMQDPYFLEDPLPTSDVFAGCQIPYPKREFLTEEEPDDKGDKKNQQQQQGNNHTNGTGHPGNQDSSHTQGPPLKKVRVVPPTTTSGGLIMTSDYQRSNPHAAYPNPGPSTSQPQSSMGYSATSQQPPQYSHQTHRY
UniProt Q15648: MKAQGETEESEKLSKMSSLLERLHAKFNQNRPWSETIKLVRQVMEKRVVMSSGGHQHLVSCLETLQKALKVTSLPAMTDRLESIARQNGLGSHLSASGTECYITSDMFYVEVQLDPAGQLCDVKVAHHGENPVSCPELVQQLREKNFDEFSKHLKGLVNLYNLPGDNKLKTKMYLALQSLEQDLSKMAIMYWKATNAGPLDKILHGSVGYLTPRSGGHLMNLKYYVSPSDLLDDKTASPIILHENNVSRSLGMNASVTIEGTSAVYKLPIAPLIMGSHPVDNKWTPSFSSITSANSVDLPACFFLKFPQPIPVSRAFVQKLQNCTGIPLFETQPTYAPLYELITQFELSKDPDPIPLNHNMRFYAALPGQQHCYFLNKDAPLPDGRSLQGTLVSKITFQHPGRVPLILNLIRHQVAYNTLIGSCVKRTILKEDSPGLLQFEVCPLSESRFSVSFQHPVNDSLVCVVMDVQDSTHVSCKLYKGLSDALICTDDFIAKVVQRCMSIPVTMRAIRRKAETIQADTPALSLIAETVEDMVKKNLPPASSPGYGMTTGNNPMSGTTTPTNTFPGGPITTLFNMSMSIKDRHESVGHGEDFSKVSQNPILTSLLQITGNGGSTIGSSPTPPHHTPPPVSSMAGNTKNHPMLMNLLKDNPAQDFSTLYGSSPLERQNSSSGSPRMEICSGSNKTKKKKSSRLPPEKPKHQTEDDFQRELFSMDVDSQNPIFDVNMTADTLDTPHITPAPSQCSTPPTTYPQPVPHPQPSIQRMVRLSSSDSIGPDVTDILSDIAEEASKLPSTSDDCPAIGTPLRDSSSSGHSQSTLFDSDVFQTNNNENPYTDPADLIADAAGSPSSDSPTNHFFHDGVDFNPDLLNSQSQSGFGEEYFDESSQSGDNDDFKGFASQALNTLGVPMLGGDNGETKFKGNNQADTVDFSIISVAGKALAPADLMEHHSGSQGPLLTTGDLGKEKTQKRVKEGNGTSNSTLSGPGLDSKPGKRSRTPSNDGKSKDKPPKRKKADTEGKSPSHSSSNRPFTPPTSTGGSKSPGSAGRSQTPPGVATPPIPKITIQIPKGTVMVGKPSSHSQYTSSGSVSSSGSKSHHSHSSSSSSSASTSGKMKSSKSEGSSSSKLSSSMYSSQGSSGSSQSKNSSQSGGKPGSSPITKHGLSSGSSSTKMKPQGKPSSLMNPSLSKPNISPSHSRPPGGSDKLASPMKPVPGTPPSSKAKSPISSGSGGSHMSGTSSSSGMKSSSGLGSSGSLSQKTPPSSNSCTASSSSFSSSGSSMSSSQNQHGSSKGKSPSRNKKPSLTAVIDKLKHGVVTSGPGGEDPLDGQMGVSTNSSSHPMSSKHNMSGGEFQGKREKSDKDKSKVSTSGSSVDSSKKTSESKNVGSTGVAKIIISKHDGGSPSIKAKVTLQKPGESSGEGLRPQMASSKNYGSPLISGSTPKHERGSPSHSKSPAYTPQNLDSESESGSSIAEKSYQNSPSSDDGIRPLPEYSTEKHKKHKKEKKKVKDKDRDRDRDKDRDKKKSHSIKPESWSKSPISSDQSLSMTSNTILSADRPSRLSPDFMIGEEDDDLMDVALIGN

The target of one experiment is T1, MBP-6xHis-TEV-p63 (UniProt Q9H3D4).
T1 sequence: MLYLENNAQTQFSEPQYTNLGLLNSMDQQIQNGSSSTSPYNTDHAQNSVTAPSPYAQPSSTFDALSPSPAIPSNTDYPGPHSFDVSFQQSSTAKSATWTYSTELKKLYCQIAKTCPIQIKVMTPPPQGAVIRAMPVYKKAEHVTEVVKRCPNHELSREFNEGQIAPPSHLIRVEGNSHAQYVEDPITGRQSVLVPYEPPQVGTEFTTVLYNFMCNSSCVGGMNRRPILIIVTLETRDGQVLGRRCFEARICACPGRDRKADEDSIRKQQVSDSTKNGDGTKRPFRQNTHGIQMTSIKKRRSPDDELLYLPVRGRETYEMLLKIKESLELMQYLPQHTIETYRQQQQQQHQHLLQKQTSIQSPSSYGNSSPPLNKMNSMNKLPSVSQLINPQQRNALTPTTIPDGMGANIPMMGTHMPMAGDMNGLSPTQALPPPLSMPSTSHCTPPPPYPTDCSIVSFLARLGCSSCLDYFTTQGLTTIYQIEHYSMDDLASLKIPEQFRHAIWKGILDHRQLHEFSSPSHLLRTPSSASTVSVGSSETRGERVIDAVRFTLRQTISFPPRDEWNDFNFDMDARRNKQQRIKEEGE
In words: pull-down; purified MBP-p63 on magnetic amylose beads incubated overnight with nuclear lysates of endogenously tagged 3NHA-CDK8 HeLa cells; 20mM HEPES pH 7.5, 150mM KCl, 0.05% NP-40, 4C; maltose elution; HA western blot; only the target purified. Background: Immunoblotting shows a protein as a band on a membrane.

The target in a further experiment is T2, p63-C-3xFLAG (UniProt Q9H3D4).
T2 sequence: T1 sequence
In words: co-IP; FLAG immunoprecipitation (magnetic M2 FLAG beads, overnight, 4C) from HEK293T nuclear lysates with transiently transfected 3xFLAG-tagged p63; 150mM KCl, 0.05% NP-40; with or without ethidium bromide (50μg/mL); western blot of endogenous Mediator subunits.

A further experiment concerns the target T3, N-3xFLAG-p63 (UniProt Q9H3D4).
T3 sequence: T1 sequence
Described as above.

Experiment [1] concerns the target T4, MBP-6xHis-TEV-p63, Q9H3D4.
T4 chain: T1 sequence
As to the kind of experiment: cross-linking; purified protein incubated with 0.025% glutaraldehyde for 30min at 4C; SDS-PAGE, silver stain; both purified. To be noted: remark: other sources report otherwise.

No constants are given. Whether binding was seen depends on the method and setting. For some of these results: In cells and extracts the contact can be indirect. Some entries that bind do so weakly or less than the wild type. Sequences can lack the tags named with a protein.

Regarding “3xHA-tagged CDK8 (from UniProt P49336 1-464)”, in the experiment with MBP-6xHis-TEV-p63, the binding result is on record as “binds”.
Take CDK8 (from UniProt P49336 1-464): the binding entry with p63-C-3xFLAG and with N-3xFLAG-p63 was “binds” throughout.
MED1 (from UniProt Q15648 1-1581): the binding entry with p63-C-3xFLAG and with N-3xFLAG-p63 was “binds” throughout.

B1: MED23 (protein, UniProt Q9ULK4 1-1368)
chain: METQLQSIFEEVVKTEVIEEAFPGMFMDTPEDEKTKLISCLGAFRQFWGGLSQESHEQCIQWIVKFIHGQHSPKRISFLYDCLAMAVETGLLPPRLVCESLINSDTLEWERTQLWALTFKLVRKIIGGVDYKGVRDLLKVILEKILTIPNTVSSAVVQQLLAAREVIAYILERNACLLPAYFAVTEIRKLYPEGKLPHWLLGNLVSDFVDTFRPTARINSICGRCSLLPVVNNSGAICNSWKLDPATLRFPLKGLLPYDKDLFEPQTALLRYVLEQPYSRDMVCNMLGLNKQHKQRCPVLEDQLVDLVVYAMERSETEEKFDDGGTSQLLWQHLSSQLIFFVLFQFASFPHMVLSLHQKLAGRGLIKGRDHLMWVLLQFISGSIQKNALADFLPVMKLFDLLYPEKEYIPVPDINKPQSTHAFAMTCIWIHLNRKAQNDNSKLQIPIPHSLRLHHEFLQQSLRNKSLQMNDYKIALLCNAYSTNSECFTLPMGALVETIYGNGIMRIPLPGTNCMASGSITPLPMNLLDSLTVHAKMSLIHSIATRVIKLAHAKSSVALAPALVETYSRLLVYMEIESLGIKGFISQLLPTVFKSHAWGILHTLLEMFSYRMHHIQPHYRVQLLSHLHTLAAVAQTNQNQLHLCVESTALRLITALGSSEVQPQFTRFLSDPKTVLSAESEELNRALILTLARATHVTDFFTGSDSIQGTWCKDILQTIMSFTPHNWASHTLSCFPGPLQAFFKQNNVPQESRFNLKKNVEEEYRKWKSMSNENDIITHFSMQGSPPLFLCLLWKMLLETDHINQIGYRVLERIGARALVAHVRTFADFLVYEFSTSAGGQQLNKCIEILNDMVWKYNIVTLDRLILCLAMRSHEGNEAQVCYFIIQLLLLKPNDFRNRVSDFVKENSPEHWLQNDWHTKHMNYHKKYPEKLYFEGLAEQVDPPVQIQSPYLPIYFGNVCLRFLPVFDIVIHRFLELLPVSKSLETLLDHLGGLYKFHDRPVTYLYNTLHYYEMHLRDRAFLKRKLVHAIIGSLKDNRPQGWCLSDTYLKCAMNAREENPWVPDDTYYCRLIGRLVDTMAGKSPGPFPNCDWRFNEFPNPAAHALHVTCVELMALAVSGKEVGNALLNVVLKSQPLVPRENITAWMNAIGLIITALPEPYWIVLHDRIVSVISSPSLTSETEWVGYPFRLFDFTACHQSYSEMSCSYTLALAHAVWHHSSIGQLSLIPKFLTEVLLPIVKTEFQLLYVYHLVGPFLQRFQQERTRCMIEIGVAFYDMLLNVDQCSTHLNYMDPICDFLYHMKYMFTGDSVKEQVEKIICNLKPALKLRLRFITHISKMEPAAVPPQAMNSGSPAPQSNQVPVSLPVTQ
For B1, the binding result in the experiment with p63-C-3xFLAG was “binds”.

B2: MBP-6xHis-TEV-p63, Q9H3D4-2 1-586 (protein)
chain: T1 sequence
With B2, the binding result in experiment [1] is on record as “binds”.
